Data as given in patent US20190185564A1.
Results are given in words; binding and its absence hold for the method and conditions named. Some entries that bind do so weakly or less than the wild type.

Sequences of proteins named here, by UniProt entry; tags and fusion partners are left off. Residues count along the entry.
UniProt Q8TDQ0, residues 22-200: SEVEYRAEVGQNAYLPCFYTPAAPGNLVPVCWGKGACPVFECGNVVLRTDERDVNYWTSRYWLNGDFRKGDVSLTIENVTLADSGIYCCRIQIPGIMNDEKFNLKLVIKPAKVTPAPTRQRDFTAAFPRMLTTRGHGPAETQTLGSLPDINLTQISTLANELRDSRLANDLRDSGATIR

B1: anti-TIM-3 antibody clone A11 (antibody, V domains shown)
VH: QVQLQQWGAGLLKPSETLSLTCAVYGGSFSGYYWSWIRQPPGKGLEWIGEINHSGSTNYNPSLKSRVTISVDTSKNQFSLKLSSVTAADTAVYYCARGYVAGFDYWGQGTLVTVSS
VL: QSVVTQPPSVSAAPGQKVTISCSGSSSNIGNNYVSWYQQLPGTAPKLLIYGNNWRPSGIPDRFSGSKSGTSATLAISGLQTGDEADYYCETWDSSLSAGVFGGGTKLTVL
B2: anti-TIM-3 antibody clone B10 (antibody, V domains shown)
VH: QVQLQESGPGLVKASETLSLTCTVSGGSIGSSDYYWGWIRQPPGKGLEWIGSIYYSGSTYYNPSLKSRVTMSVDTPNNQFSLKLSSVTAADTAVYYCARGEHRGEFDYWGQGTLVTVSS
VL: EIVLTQSPATLSFSPGERATLSCRASQSVGSYLAWYQQRPGQAPRPLIYDATNRATGIPTRFSGSGSGTDFTLTISSLEPEDFATYYCQHRRTFGRGTKLEIK

Biological target: Human TIM-3 coupled to phycoerythrin (human) (UniProt Q8TDQ0)
Assay: blocking assay, flow cytometry: human TIM-3-PE pre-incubated with antibody, then added to galectin-9-expressing MOLT3 cells; blocked ligand galectin-9

Binder	binding
B1	binds
B2	binds
